Source: PMC9001682
No constants are given. Whether binding was seen depends on the method and setting. In cells and extracts the contact can be indirect. Some entries that bind do so weakly or less than the wild type. Where a sequence is shown, tags or fusion partners need not be part of it.

Chains of the proteins cited; added tags and fusions are not shown. Residues count along the entry.
UniProt P29317, residues 24-976: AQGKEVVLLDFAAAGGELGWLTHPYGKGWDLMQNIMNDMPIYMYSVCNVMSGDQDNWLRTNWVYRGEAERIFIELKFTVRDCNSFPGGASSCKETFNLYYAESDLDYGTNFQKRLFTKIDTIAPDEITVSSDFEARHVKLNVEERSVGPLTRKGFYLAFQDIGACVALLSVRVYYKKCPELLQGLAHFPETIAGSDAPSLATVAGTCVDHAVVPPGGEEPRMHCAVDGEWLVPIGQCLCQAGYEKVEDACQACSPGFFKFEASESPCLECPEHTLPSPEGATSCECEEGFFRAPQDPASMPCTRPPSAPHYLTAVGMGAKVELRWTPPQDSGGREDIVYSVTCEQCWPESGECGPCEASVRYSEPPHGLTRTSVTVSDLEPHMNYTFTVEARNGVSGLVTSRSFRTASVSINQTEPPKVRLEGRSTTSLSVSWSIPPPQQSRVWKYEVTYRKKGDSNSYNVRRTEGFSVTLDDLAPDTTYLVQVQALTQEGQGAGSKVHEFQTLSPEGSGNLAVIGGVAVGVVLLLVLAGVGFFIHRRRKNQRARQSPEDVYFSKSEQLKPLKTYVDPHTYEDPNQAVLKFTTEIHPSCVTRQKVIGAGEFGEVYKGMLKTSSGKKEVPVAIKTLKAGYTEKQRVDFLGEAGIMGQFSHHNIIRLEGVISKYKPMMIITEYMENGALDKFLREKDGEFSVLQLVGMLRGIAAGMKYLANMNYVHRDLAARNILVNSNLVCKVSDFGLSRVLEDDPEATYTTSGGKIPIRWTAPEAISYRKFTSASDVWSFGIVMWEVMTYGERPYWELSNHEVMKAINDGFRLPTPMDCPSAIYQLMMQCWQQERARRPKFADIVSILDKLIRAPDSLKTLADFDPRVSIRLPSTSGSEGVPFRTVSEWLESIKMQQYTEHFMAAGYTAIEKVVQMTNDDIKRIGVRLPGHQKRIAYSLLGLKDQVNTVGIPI

T1: HA-tagged RNF149 (UniProt Q8NC42)
T1 sequence: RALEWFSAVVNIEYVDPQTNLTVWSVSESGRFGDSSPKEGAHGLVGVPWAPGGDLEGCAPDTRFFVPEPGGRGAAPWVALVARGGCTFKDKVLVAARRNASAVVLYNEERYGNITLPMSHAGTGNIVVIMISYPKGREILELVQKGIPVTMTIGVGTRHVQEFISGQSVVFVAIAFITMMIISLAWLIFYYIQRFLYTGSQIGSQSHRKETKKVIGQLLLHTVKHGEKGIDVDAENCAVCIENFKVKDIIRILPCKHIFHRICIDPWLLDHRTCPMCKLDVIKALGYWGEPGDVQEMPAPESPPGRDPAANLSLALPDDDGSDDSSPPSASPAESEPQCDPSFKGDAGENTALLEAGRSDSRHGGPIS

T2: Flag-tagged MFSD4A, transfected in 293 T cells (UniProt Q8N468)
T2 sequence: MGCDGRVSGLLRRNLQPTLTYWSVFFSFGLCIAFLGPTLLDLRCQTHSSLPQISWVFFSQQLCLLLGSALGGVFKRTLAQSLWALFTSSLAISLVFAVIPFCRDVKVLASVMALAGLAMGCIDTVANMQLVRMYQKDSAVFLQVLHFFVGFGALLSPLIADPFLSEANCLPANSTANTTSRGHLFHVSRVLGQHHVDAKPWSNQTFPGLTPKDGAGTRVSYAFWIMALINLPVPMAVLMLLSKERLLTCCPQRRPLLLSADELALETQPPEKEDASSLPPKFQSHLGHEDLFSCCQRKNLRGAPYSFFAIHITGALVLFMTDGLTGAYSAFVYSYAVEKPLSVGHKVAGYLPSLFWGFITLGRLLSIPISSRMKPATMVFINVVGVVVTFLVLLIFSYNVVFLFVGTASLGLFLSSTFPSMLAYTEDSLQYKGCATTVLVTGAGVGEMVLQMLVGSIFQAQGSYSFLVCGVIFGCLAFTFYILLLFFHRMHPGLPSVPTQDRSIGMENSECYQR


Tests used:
Experiment in all cases: co-IP; 293 T cells transfected with FLAG-MFSD4A, GFP-EPHA2 and HA-RNF149 together; lysates with anti-Flag, anti-GFP or anti-HA antibodies or IgG overnight at 4 °C, protein A/G magnetic beads, immunoblot with anti-GFP, anti-FLAG and anti-HA
[1] = biological target: T1, HA-tagged RNF149
[2] = biological target: T2, Flag-tagged MFSD4A, transfected in 293 T cells
[3] = biological target: GFP-tagged EPHA2 (UniProt P29317)

Row | binding [1] | binding [2] | binding [3] | Molecule
1 | binds | binds |  | GFP-tagged EPHA2 (from UniProt P29317 24-976) (receptor)
2 | binds |  | binds | Flag-tagged MFSD4A, transfected in 293 T cells (protein, UniProt Q8N468 1-514) MGCDGRVSGLLRRNLQPTLTYWSVFFSFGLCIAFLGPTLLDLRCQTHSSLPQISWVFFSQQLCLLLGSALGGVFKRTLAQSLWALFTSSLAISLVFAVIPFCRDVKVLASVMALAGLAMGCIDTVANMQLVRMYQKDSAVFLQVLHFFVGFGALLSPLIADPFLSEANCLPANSTANTTSRGHLFHVSRVLGQHHVDAKPWSNQTFPGLTPKDGAGTRVSYAFWIMALINLPVPMAVLMLLSKERLLTCCPQRRPLLLSADELALETQPPEKEDASSLPPKFQSHLGHEDLFSCCQRKNLRGAPYSFFAIHITGALVLFMTDGLTGAYSAFVYSYAVEKPLSVGHKVAGYLPSLFWGFITLGRLLSIPISSRMKPATMVFINVVGVVVTFLVLLIFSYNVVFLFVGTASLGLFLSSTFPSMLAYTEDSLQYKGCATTVLVTGAGVGEMVLQMLVGSIFQAQGSYSFLVCGVIFGCLAFTFYILLLFFHRMHPGLPSVPTQDRSIGMENSECYQR
